## Library screen at single concentrations

By UniProt entry, the sequences of proteins in these tests, tags left out. Residues count along the entry.
UniProt Q4DA54, 1-478: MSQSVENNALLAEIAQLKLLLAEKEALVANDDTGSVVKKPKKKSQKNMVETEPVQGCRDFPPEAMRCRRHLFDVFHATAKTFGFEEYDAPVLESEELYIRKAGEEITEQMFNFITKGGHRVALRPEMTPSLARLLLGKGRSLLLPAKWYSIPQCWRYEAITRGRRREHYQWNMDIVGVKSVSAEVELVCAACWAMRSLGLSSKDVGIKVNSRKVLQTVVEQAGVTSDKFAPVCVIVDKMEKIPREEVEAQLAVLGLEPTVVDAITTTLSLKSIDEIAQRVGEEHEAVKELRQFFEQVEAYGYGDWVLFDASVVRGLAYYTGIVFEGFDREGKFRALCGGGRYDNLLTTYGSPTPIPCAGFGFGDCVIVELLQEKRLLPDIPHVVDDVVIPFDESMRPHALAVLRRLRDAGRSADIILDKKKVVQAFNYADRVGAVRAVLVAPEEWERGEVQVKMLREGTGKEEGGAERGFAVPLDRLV
UniProt P9WNZ1, whole entry: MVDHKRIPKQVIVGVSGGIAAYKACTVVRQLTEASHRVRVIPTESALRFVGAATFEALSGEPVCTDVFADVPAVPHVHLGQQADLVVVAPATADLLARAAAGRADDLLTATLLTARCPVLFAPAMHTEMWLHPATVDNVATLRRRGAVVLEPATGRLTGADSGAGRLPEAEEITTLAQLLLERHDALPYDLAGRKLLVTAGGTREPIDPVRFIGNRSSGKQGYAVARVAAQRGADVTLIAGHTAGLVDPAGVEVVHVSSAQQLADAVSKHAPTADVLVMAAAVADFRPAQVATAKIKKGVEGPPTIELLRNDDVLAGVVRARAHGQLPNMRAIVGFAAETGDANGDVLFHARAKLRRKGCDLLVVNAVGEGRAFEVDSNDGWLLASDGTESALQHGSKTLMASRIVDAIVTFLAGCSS

Values are the deposited “Percent Effect”, in %. The record does not define 0% and 100%; most values in the screen are far below 50% and negative numbers occur (in some assays of this library far below -100). This is an unselected part of the compounds tested. A dash means the value is not listed here; it may have been measured.

Toxoplasma: 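Assay of Toxoplasma gondii numbers, read through their beta-galactosidase reporter with a colour substrate. Concentration: 10 µM. Higher reads as fewer parasites (inferred from which compounds were picked for retests). Size under these conditions: about 67,000 compounds, about 260 of them at 50% or above in at least one test.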
TcHisRS: 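Histidine-tRNA ligase, Trypanosoma cruzi CL Brener (UniProt Q4DA54). Enzyme assay of histidyl-tRNA synthetase; the read-out is not stated. Tested at 30 µM. Direction is inferred from retests: higher values go with stronger inhibition. About 69,000 compounds were tested under these conditions; 0.045% (about 31) showed 50% or more at least once.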
CoaBC: 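Enzyme assay of CoaBC with a phosphate dye (Biomol Green) read at 650 nm. Target: Coenzyme A biosynthesis protein CoaBC, Mycobacterium tuberculosis (UniProt P9WNZ1). Compounds at 30 µM. Higher reads as stronger inhibition, judged from the few compounds that gave an IC50. Most strong results did not repeat in a second test. Of about 67,000 compounds tested this way, about 40 (0.06%) reached 50% or more in at least one test.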
Leishmania in macrophages: 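Cell assay of Leishmania donovani living inside macrophages; the read-out is not stated. Compounds at 30 µM. Higher reads as stronger inhibition (inferred: compounds with an IC50 in retests scored well above the rest). Size under these conditions: about 69,000 compounds, about 1,000 of them at 50% or above in at least one test.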

| structure | Toxoplasma | TcHisRS | CoaBC | Leishmania in macrophages |
|---|---|---|---|---|
| `CCCc1cc(C(=O)Nc2nc(SC)ns2)n(C)n1` | 12.75% | 6.513% | -0.7177% | 0.241% |
| `Cc1noc(C)c1CNCC1CCN(CC(O)c2ccccc2)CC1` (centres undefined) | 4.556% | -2.632% | 7.833% | 48.93% |
| `O=C(O)C(F)(F)F.[H][C@]12CCN(C(=O)c3ccc4[nH]ccc4c3)C[C@@]1([H])OCCN(C)C2` | 0.9304% | - | - | 40.11% |
| `COCCNC(=O)Cn1cc2c(n1)c(C)nn2C(C)C` | -12.41% | 6.931% | -2.651% | -22.16% |
| `Cc1cc(CN(Cc2cccs2)CC2CCCO2)no1` (centres undefined) | -7.93% | 6.391% | 7.311% | 9.343% |
| `Cc1cnc(-c2nc(NC3CC3)ncc2-c2onc(C)c2C)cn1` | -3.261% | 9.886% | -0.8653% | 36.59% |
| `COc1cccc(CNC(=O)c2nc3c(o2)CN(S(C)(=O)=O)C3)c1` | -4.096% | 4.908% | - | 30.53% |
| `CC(C)CN1CCC2(CC(C(=O)NCc3cccnc3)=NO2)C1` (centres undefined) | 5.408% | 6.863% | -0.3257% | -2.313% |
| `O=C1CC2(CCN(Cc3ccc4cccc(O)c4n3)CC2)CN1` | -0.4643% | 16.2% | 6.452% | 0.5464% |
| `CN(C)c1cc(C(=O)N2CCCN(Cc3nccn3C)CC2)ccn1` | 27.77% | 0.578% | 0.1277% | 13.3% |
| `COCc1nnc(-c2cccc(C(=O)OC(C)C)c2)o1` | -2.33% | 1.176% | 1.72% | 8.727% |
| `CC(C)c1nnc(NCCS(C)(=O)=O)s1` | -5.379% | 5.366% | 0.6274% | -15.63% |
| `CC(C)C(O)CCNC(=O)Nc1cc(F)ccc1-n1cccn1` (centres undefined) | -3.101% | 4.762% | -8.884% | -35.19% |
| `O=C(O)C(F)(F)F.[H][C@@]12C[C@H](C(=O)N3CCCO3)CN(Cc3ccoc3)[C@]1([H])CCO2` | -9.473% | - | - | -6.355% |
| `Cc1cc(CN2CCN(C(=O)Cc3ccccc3F)CC2)on1` | 9.185% | 3.077% | -1.837% | 8.556% |
| `Cc1ncsc1CN1CCn2c(COc3cccnc3)cnc2C1C` (centres undefined) | - | 13.79% | -1.833% | - |
| `CC(C)n1nc2c(cc1=O)CN(Cc1nc(-c3ccoc3)no1)CC2` | -0.05917% | 10.33% | 4.545% | -21.46% |
| `Cc1ccc(CN2CCOC3(COCCN(C(C)C)C3)C2)o1` (centres undefined) | - | 5.102% | 2.349% | - |
| `[H][C@@]12CCN(C(=O)C3CC3)[C@]1([H])C(=O)N(c1ccccc1)C(=O)N2` | 2.754% | - | - | 29.34% |
| `O=C(O)C(F)(F)F.O=C(O)C(F)(F)F.[H][C@@]12CN(Cc3ccoc3)C[C@]1([H])C(=O)N(Cc1cccnc1)C2` | -24.8% | - | - | 33.16% |
| `Cc1cc(=O)[nH]c(=O)n1COCc1ccccc1` | - | 6.931% | - | -6.029% |
| `COc1ccccc1OCc1cc(C(=O)N2CCC(NC(C)=O)C2)n[nH]1` (centres undefined) | 4.87% | -1.058% | 6.903% | -10.63% |
| `O=C(O)C(F)(F)F.O=C(O)C(F)(F)F.O=C(O)C(F)(F)F.[H][C@@]12CO[C@@H](CN3CCN(C)CC3)[C@]1([H])CCN(Cc1ccsc1)C2` | 5.021% | - | - | 17.67% |
| `CCc1cnc(N2CC[C@H]3[C@H]2CC(=O)N3c2cccnc2)nc1` | - | 7.843% | 5.863% | - |
| `Cc1noc(NC(=O)CCNC(=O)c2ccc(Br)cc2)n1` | 9.357% | -0.578% | -0.9126% | 0.4676% |
| `CCc1nc(CN2CCCN(c3ncnc4ccsc34)CC2)no1` | 1.202% | 7.738% | 1.827% | 27.83% |
| `Cc1noc(-c2ccc(N3CCN(Cc4nccn4C)CC3)nc2)n1` | 18.64% | 4.663% | -0.5612% | -11.38% |
| `Cc1cnccc1-c1cnn(CCNC(=O)c2ccncc2)c1C1CC1.Cl` | 11.95% | - | - | 22.53% |
| `Cc1nnc(SCCCNC(=O)c2ccc3c(c2)OCO3)s1` | -8.083% | 0.5952% | -0.3654% | -14.7% |
| `CC(Cn1cncn1)NC(=O)NCC(C)(C)Cc1ccccc1` (centres undefined) | 2.426% | 8.152% | -2.479% | 15.17% |
| `CNS(=O)(=O)c1cccc(CNc2ccc(C#N)cn2)c1` | 8.827% | 3.59% | -2.484% | 18.43% |
| `Cc1nc(N2CCCC2)nc2c1CCN(Cc1ccsc1)CC2` | - | -3.261% | 1.402% | - |
| `Cc1ccc(OCCN2CCCC(c3cc(C(N)=O)[nH]n3)C2)cc1` (centres undefined) | 7.728% | 1.695% | -2.089% | 15.44% |
| `COc1cccc(-c2ncc(CN3CC[C@H]4CC[C@@H](C3)N4)s2)c1` | - | 7.879% | 0.9732% | - |
| `Cc1cccc(CN2C(=O)OCC2CO)c1F` (centres undefined) | 0.6739% | 1.98% | 0.6053% | -0.8529% |

Repeated from the top, 4 entries:

* CCCc1cc(C(=O)Nc2nc(SC)ns2)n(C)n1 : Toxoplasma: 12.75%; TcHisRS: 6.513%; CoaBC: -0.7177%; Leishmania in macrophages: 0.241%
* Cc1noc(C)c1CNCC1CCN(CC(O)c2ccccc2)CC1 (centres undefined) : Toxoplasma: 4.556%; TcHisRS: -2.632%; CoaBC: 7.833%; Leishmania in macrophages: 48.93%
* O=C(O)C(F)(F)F.[H][C@]12CCN(C(=O)c3ccc4[nH]ccc4c3)C[C@@]1([H])OCCN(C)C2 : Toxoplasma: 0.9304%; Leishmania in macrophages: 40.11%
* COCCNC(=O)Cn1cc2c(n1)c(C)nn2C(C)C : Toxoplasma: -12.41%; TcHisRS: 6.931%; CoaBC: -2.651%; Leishmania in macrophages: -22.16%

Measurements from “University of Dundee, Small-Polar-MMV Screening Library” (2021), ChEMBL document CHEMBL3988442.